The other results are listed elsewhere or left out. Residues, ends and D or L forms follow the SMILES beside them. *: point of attachment. Cbz = O=C(OCc1ccccc1)*
What was measured:
Experiment in all cases: log2 fold change, soluble protein after heating vs DMSO (PISA); higher = thermal stabilisation; K562 cells, 10 uM, 30 min; active = over 0.2 and 3.5 SD of the protein, either way, in both replicates (recomputed)
erlotinib = compound: C#Cc1cccc(Nc2ncnc3cc(OCCOC)c(OCCOC)cc23)c1 [erlotinib]
Outline: (§1)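 Soluble protein was quantified by TMTpro 16plex LC-MS/MS after channel sums were equalised. It was obtained as the supernatant after 21,000xg for 90 min from pooled aliquots of K562 cells (2×10^6 cells/mL, 10 μM compound, 30 min) heated for 3 min across 48°C-58°C and extracted in PBS with 0.5% NP-40 at 4°C. Thermal stability values are relative to control samples and come from duplicates. They are given as log2 fold changes.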

Amino acid sequences for entries named in this document (tags omitted). A change or cut given only in a name is not applied to a line headed by its entry.
UniProt Q9UL54: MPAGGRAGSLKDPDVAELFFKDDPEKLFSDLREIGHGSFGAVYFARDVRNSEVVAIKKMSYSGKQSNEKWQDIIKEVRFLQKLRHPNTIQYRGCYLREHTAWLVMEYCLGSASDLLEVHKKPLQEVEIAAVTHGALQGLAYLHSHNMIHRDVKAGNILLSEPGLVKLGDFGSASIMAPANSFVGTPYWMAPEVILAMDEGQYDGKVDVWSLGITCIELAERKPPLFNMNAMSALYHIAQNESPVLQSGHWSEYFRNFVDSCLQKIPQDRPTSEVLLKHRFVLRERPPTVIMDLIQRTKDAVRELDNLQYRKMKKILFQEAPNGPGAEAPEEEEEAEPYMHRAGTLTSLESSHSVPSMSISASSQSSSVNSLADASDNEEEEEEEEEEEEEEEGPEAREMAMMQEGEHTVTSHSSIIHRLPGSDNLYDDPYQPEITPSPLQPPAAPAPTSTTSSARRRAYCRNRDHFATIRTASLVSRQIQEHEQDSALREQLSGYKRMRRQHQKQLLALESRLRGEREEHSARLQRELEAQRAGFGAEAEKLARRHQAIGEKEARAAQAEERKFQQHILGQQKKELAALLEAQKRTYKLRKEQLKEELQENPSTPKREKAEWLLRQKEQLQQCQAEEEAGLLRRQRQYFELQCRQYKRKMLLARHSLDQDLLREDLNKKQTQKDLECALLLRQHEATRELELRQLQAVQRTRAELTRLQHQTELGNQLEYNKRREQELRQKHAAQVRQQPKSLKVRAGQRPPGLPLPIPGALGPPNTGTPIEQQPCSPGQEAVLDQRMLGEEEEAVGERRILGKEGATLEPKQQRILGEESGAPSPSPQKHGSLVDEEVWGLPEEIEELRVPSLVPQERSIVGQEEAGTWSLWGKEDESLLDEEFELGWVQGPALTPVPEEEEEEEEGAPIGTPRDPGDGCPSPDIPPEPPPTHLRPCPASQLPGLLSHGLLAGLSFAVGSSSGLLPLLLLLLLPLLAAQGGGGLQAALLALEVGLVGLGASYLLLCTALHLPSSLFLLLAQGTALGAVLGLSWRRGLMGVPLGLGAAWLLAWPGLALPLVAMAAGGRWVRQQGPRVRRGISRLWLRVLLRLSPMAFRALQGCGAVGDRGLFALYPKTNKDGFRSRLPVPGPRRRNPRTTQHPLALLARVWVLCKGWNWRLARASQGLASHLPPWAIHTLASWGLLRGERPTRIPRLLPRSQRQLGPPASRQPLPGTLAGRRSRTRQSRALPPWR
UniProt Q9NYJ8: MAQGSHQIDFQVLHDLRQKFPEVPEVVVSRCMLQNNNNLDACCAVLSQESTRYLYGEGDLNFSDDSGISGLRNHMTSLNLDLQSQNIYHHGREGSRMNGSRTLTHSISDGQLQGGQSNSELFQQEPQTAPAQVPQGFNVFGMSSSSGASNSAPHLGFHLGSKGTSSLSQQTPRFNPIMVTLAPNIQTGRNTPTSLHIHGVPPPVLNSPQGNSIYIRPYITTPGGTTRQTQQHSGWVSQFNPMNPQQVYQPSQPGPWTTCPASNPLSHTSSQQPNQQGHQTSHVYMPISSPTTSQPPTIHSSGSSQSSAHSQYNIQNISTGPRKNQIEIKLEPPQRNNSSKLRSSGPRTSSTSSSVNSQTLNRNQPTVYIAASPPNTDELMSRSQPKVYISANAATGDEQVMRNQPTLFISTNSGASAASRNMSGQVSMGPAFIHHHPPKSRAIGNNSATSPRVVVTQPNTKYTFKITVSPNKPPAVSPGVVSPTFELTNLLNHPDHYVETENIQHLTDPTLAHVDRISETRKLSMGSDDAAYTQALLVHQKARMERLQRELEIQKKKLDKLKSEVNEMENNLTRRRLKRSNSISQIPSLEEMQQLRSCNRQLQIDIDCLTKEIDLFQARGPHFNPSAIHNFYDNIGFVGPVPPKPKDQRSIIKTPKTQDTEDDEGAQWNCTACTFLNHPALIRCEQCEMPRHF
UniProt Q15542, whole entry, looked up: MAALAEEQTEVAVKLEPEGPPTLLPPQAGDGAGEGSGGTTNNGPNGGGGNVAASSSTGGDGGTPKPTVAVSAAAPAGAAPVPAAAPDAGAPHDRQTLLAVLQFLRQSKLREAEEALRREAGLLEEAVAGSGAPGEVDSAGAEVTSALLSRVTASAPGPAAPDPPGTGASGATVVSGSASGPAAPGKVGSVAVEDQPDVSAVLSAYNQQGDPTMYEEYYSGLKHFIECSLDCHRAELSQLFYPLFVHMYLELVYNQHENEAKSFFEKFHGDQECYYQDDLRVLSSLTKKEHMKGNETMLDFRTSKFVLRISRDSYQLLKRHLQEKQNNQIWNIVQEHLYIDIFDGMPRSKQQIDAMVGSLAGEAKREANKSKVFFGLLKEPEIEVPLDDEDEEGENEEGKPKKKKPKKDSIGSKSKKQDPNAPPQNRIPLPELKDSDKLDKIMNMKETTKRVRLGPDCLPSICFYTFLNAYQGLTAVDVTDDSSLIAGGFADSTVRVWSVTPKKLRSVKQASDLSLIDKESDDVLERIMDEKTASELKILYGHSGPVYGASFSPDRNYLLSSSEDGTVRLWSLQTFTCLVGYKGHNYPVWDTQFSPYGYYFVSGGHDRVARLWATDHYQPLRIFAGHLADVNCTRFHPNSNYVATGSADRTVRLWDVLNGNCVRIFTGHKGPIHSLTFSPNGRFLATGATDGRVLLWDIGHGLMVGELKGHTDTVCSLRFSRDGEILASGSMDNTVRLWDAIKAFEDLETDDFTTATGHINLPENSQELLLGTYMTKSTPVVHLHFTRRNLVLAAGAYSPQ
UniProt Q8N2H4: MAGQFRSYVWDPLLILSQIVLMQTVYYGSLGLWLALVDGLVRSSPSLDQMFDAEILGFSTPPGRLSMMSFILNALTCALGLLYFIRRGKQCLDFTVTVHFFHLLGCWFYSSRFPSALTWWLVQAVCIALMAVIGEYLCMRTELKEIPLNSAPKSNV
UniProt O75486: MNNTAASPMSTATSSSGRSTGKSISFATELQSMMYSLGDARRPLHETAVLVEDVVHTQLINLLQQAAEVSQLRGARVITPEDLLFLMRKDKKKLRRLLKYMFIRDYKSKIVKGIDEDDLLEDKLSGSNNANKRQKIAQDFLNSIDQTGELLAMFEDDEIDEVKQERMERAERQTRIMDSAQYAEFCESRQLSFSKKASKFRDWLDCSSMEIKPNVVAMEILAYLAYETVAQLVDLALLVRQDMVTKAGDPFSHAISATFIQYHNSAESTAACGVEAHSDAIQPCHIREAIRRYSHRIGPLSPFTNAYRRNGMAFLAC
UniProt Q6P1N9: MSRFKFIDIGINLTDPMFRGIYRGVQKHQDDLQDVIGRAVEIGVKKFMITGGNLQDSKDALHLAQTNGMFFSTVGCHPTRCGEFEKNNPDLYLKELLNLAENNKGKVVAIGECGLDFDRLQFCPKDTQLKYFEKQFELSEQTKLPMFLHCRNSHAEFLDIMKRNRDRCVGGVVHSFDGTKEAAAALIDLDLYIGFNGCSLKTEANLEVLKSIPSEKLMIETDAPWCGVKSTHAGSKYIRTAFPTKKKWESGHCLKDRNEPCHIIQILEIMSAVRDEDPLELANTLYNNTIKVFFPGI
UniProt P08842: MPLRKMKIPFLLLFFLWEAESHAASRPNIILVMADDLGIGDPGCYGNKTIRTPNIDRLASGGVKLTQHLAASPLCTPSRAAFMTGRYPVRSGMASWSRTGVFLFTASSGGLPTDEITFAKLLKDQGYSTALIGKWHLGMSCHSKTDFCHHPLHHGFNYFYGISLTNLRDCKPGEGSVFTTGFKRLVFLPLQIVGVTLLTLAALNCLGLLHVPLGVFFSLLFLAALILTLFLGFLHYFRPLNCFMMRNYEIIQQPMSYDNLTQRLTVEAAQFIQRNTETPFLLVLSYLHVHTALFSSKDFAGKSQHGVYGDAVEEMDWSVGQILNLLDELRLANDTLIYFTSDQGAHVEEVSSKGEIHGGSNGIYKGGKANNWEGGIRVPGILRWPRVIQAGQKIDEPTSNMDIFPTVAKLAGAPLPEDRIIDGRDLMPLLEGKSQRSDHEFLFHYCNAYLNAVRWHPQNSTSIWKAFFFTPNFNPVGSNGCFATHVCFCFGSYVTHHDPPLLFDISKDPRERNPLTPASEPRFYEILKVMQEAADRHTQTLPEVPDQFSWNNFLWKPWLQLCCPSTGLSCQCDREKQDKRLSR
UniProt Q15543, whole entry, looked up: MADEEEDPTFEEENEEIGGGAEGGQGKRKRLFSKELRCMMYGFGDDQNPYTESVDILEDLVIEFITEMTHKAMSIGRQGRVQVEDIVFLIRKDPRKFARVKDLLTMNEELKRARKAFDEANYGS
UniProt Q8WUJ0: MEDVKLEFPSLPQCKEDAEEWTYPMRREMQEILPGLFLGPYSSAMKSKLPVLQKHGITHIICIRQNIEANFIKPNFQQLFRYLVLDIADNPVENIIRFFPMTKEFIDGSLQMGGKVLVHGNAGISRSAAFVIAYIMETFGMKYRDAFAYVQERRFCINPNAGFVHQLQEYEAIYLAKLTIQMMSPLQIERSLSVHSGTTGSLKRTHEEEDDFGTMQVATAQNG
UniProt O43759: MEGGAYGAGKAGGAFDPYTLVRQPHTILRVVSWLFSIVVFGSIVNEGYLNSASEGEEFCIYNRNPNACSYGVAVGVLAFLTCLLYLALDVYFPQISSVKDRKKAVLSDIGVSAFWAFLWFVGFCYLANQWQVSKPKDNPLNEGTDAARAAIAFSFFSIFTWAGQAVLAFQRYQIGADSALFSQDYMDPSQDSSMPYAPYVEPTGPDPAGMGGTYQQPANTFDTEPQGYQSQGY
UniProt Q8N300: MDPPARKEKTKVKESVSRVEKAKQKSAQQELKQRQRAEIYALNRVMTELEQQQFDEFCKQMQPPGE
UniProt Q9Y2Z0: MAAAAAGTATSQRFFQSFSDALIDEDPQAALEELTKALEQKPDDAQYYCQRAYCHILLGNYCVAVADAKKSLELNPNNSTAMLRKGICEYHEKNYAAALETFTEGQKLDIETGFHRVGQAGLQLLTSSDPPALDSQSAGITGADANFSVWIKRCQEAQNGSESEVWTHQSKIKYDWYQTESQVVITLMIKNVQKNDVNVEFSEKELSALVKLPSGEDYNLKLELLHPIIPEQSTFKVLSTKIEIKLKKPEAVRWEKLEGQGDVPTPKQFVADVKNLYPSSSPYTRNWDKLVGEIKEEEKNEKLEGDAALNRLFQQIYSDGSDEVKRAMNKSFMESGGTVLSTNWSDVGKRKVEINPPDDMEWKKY
UniProt Q6P1X5, whole entry, looked up: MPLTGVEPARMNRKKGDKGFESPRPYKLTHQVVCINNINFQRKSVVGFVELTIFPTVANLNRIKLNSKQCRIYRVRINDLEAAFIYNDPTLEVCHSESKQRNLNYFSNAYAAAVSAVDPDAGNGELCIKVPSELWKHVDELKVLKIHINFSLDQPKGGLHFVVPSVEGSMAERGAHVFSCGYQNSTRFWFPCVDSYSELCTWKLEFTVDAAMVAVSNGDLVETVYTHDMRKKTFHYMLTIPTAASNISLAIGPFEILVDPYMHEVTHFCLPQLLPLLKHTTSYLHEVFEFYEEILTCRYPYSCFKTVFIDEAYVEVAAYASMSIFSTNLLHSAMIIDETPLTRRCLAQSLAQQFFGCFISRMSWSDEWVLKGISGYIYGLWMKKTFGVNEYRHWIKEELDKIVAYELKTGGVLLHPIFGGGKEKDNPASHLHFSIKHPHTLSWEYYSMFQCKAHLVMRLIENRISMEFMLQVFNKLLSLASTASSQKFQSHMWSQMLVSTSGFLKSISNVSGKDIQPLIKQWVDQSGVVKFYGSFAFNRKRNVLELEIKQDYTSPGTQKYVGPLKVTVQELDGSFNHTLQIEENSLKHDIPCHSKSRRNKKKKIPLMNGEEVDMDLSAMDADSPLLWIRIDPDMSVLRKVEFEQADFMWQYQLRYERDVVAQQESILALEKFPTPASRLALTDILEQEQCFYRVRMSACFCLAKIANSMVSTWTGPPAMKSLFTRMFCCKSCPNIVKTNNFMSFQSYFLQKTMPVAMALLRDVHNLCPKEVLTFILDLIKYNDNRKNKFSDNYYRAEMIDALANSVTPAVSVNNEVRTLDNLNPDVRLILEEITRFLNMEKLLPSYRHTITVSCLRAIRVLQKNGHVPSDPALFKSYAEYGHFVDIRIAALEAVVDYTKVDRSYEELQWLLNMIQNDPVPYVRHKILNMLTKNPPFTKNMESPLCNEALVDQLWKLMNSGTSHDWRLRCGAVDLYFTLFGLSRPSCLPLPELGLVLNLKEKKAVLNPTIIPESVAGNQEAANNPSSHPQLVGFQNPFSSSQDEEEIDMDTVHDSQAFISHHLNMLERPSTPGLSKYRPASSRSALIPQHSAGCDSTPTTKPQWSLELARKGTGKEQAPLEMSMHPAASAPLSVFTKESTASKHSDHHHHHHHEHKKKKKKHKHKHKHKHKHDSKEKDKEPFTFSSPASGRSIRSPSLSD
UniProt Q01995: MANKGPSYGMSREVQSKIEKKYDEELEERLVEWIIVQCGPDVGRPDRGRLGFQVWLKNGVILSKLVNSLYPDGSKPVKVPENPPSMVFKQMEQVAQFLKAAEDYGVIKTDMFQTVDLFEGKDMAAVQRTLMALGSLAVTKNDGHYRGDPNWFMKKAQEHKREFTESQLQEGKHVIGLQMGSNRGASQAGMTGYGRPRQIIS

[1] = compound: C1=CC(=C(C=C1Cl)C2=NC3=NC=CN=C3C(=N2)NC4=CC=NC=C4)F
Outline: as §1

[2] = compound: C1=CC(=CC=C1C2=NC3=C(N2)C=C(C=C3)C(=O)N)OC4=CC=C(C=C4)Cl
Outline: as §1

[3] = compound: C1=CC=C(C=C1)C2=NC(=C(N2)C3=CC=NC=C3)C4=CC(=C(C=C4)Cl)O
Outline: as §1

[4] = compound: C1CCN(C1)C(=O)NC2=CC=CC(=C2)NC3=NC=C(C(=N3)NCCC4=CN=CN4)Br
Outline: as §1

[5] = compound: C1CN(CCC1(CC2=CC=C(C=C2)Cl)N)C3=NC=NC4=C3C=CN4
Outline: as §1

IRAK-1-4 Inhibitor I = compound: C1COCCN1CCN2C3=CC=CC=C3N=C2NC(=O)C4=CC(=CC=C4)[N+](=O)[O-] [IRAK-1-4 Inhibitor I]
Outline: as §1

ralimetinib = compound: CC(C)(C)Cn1c(N)nc2ccc(-c3[nH]c(C(C)(C)C)nc3-c3ccc(F)cc3)nc21 [ralimetinib]
Outline: as §1

[6] = compound: CC(C)(O)CC(=O)NCCn1ccc2ncnc(Nc3ccc(Oc4cccc(C(F)(F)F)c4)c(Cl)c3)c21
Outline: as §1

[7] = compound: CC(C)C1=C2N=C(C=C(N2N=C1)NCC3=CC=CC=C3)NCCCCCCN
Outline: as §1

[8] = compound: CC(C)C[C@@H](C=O)NC(=O)[C@H](CC(C)C)NC(=O)[C@H](CC(C)C)NC(=O)OCc1ccccc1
Outline: as §1

pinometostat = compound: CC(C)N(C[C@H]1O[C@@H](n2cnc3c(N)ncnc32)[C@H](O)[C@@H]1O)[C@H]1C[C@@H](CCc2nc3cc(C(C)(C)C)ccc3[nH]2)C1 [pinometostat]
Outline: as §1

[9] = compound: CC1=C(C2=C(C=C1)C(=O)C3=CC=CC=C3N2CCCN)C
Outline: as §1

[10] = compound: C/C(=N\NC(=O)C1=CC(=CC=C1)S(=O)(=O)N2CCOCC2)/C3=C(C=CC(=C3)Cl)O
Outline: as §1

[11] = compound: C1=CC2=C(C=CC(=C2)/C=C\3/C(=O)NC(=NCC4=CC=CS4)S3)N=C1
Outline: as §1

[12] = compound: C1=CC2=NC=CN=C2C=C1/C=C/3\C(=O)NC(=O)S3
Outline: as §1

[13] = compound: C1=CC=C2C(=C1)C3=NNC4=CC=CC(=C43)C2=O
Outline: as §1

ibrutinib = compound: C=CC(=O)N1CCC[C@@H](n2nc(-c3ccc(Oc4ccccc4)cc3)c3c(N)ncnc32)C1 [ibrutinib]
Outline: as §1

[14] = compound: CC(=O)c1cnc2ccc(-c3cc(Cl)c(O)c(Cl)c3)nc2c1N[C@H]1CC[C@H](CN(C)C)CC1
Outline: as §1

[15] = compound: CC1=C(C(CC(=O)N1)C2=CC=C(C=C2)C(F)(F)F)C(=O)NC3=C(C=C4C(=C3)C=NN4)F
Outline: as §1

Measured: log2 fold change

TAOK2 (UniProt Q9UL54)
inactive: erlotinib -0.043 | [1] -0.019 | [2] 0.156 | [3] 0.029 | [4] -0.014 | [5] 0.029 | IRAK-1-4 Inhibitor I -0.132 | ralimetinib 0.09 | [6] -0.041 | [7] 0.083 | [8] 0.001 | pinometostat 0.031 | [9] 0.127

STXBP4 (UniProt Q6ZWJ1)
inactive: [1] -0.345 | IRAK-1-4 Inhibitor I 0.089 | [6] 0.032 | pinometostat -0.042

TAB2 (UniProt Q9NYJ8)
inactive: [1] -0.182 | [3] -0.014 | [4] -0.159 | [5] -0.315 | ralimetinib 0.043 | [6] 0.016 | [8] 0.106 | [9] 0.038

TACC2 (UniProt O95359)
inactive: erlotinib -0.219 | [10] 0.008 | [2] 0.06 | [11] 0.005 | [12] 0.075 | [3] -0.128 | [13] 0.014 | [4] 0.014 | [5] -0.026 | ibrutinib -0.058 | [14] 0.054 | ralimetinib 0.108 | [7] -0.205 | [8] -0.007 | [9] 0.058

TAF5 (UniProt Q15542)
inactive: erlotinib -0.019 | [1] 0 | [2] -0.027 | [3] -0.105 | IRAK-1-4 Inhibitor I -0.231 | ralimetinib 0.246 | [6] 0.18 | [7] -0.022 | [8] 0.131 | pinometostat 0.38

SYS1 (UniProt Q8N2H4)
inactive: erlotinib 0.182 | [2] -0.103 | [3] 0.005 | ralimetinib 0.057 | [7] 0.036 | [8] -0.037

SUPT3H isoform 4 (UniProt O75486)
inactive: [3] -0.024 | ralimetinib 0.106 | [8] -0.103

TATDN1 isoform 2 (UniProt Q6P1N9)
inactive: erlotinib 0.278 | [2] -0.165 | [3] -0.046 | ralimetinib 0.023 | [7] 0.344 | [8] -0.065

STS (UniProt P08842)
inactive: [10] 0.12 | [11] -0.003 | [12] 0.265 | [13] 0.007 | ibrutinib 0.079 | [14] -0.141

TACC3 (UniProt C9JWI7)
inactive: [3] -0.219 | ralimetinib -0.099 | [8] 0.155

SUPT7L (UniProt O94864)
inactive: erlotinib 0.204 | [2] -0.029 | [12] 0.2 | [3] -0.008 | IRAK-1-4 Inhibitor I -0.052 | ibrutinib -0.093 | ralimetinib 0.105 | [7] -0.207 | [8] -0.048 | pinometostat 0.059 | [15] -0.004

TAF13 (UniProt Q15543)
inactive: [1] -0.372 | [3] -0.106 | [4] 0.077 | [5] 0.067 | ralimetinib 0.038 | [6] 0.215 | [8] -0.172 | [9] 0.006

STYX (UniProt Q8WUJ0)
inactive: erlotinib -0.046 | [2] -0.027 | [3] -0.101 | [4] -0.033 | [5] 0.019 | ralimetinib -0.22 | [7] -0.198 | [8] -0.093 | [9] 0.113

2 entries picked at random from the list so far, as already listed:
TATDN1 isoform 2 (UniProt Q6P1N9)
inactive: erlotinib 0.278 | [2] -0.165 | [3] -0.046 | ralimetinib 0.023 | [7] 0.344 | [8] -0.065

STYX (UniProt Q8WUJ0)
inactive: erlotinib -0.046 | [2] -0.027 | [3] -0.101 | [4] -0.033 | [5] 0.019 | ralimetinib -0.22 | [7] -0.198 | [8] -0.093 | [9] 0.113

Remaining list, next part:

TAZ (UniProt Q16635)
inactive: [3] 0.06 | ralimetinib -0.135 | [8] -0.016

SYNGR1 isoform 3 (UniProt O43759)
inactive: [4] -0.102 | [5] 0.139 | [9] 0.137

SVBP (UniProt Q8N300)
inactive: [10] -0.058 | [1] 0.039 | [11] 0.02 | [12] -0.068 | [3] -0.052 | [13] 0.017 | [4] -0.038 | [5] 0.012 | ibrutinib 0.019 | [14] 0.011 | ralimetinib 0.029 | [6] -0.061 | [8] 0.147 | [9] -0.032

SUGT1 isoform 2 (UniProt Q9Y2Z0)
inactive: erlotinib -0.008 | [2] 0.042 | [12] 0.005 | [3] -0.112 | [4] -0.054 | [5] 0.007 | IRAK-1-4 Inhibitor I 0 | ibrutinib 0.025 | ralimetinib -0.035 | [7] 0.016 | [8] 0.133 | pinometostat 0.053 | [9] 0.096

TAF2 (UniProt Q6P1X5)
inactive: [10] -0.05 | [1] -0.189 | [11] -0.114 | [12] -0.175 | [3] -0.066 | [13] 0.017 | [4] 0.141 | [5] -0.523 | IRAK-1-4 Inhibitor I 0.026 | ibrutinib -0.01 | [14] -0.204 | ralimetinib 0.027 | [6] 0.029 | [8] 0.061 | pinometostat 0.209 | [15] 0.058 | [9] -0.055

TAGLN (UniProt Q01995)
inactive: erlotinib 0.125 | [2] -0.008 | [12] -0.122 | IRAK-1-4 Inhibitor I 0.172 | ibrutinib 0.09 | [7] 0.276 | pinometostat 0.037

TAF12 (UniProt Q16514)
inactive: erlotinib 0.041 | [2] 0.007 | [12] 0.014 | [4] -0.01 | [5] -0.044 | IRAK-1-4 Inhibitor I 0.066 | ibrutinib -0.04 | [7] 0.019 | pinometostat -0.013 | [15] 0.048 | [9] -0.069

From the supplement of paper PMC10849652
